Experimental data taken from publication PMC11481257.
These are yes or no findings as the source states them, for the method shown. Binding seen in cells or lysates may run through a third protein. Some entries that bind do so weakly or less than the wild type.

The chains behind the UniProt entries cited, without tags or fusion partners.
UniProt A9QM74: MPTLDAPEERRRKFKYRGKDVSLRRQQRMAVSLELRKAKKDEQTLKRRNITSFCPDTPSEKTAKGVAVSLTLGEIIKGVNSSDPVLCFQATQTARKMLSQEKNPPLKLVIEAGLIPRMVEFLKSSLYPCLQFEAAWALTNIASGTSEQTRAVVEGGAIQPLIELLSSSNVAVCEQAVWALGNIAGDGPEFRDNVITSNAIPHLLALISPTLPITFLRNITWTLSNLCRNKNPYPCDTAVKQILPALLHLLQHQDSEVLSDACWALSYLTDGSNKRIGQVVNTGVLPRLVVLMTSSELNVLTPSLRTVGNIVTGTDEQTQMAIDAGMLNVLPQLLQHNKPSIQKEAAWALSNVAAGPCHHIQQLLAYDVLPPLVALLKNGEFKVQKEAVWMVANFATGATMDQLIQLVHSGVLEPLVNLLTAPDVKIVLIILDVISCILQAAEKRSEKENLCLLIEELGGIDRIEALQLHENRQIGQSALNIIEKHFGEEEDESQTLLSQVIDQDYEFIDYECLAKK
UniProt O15131: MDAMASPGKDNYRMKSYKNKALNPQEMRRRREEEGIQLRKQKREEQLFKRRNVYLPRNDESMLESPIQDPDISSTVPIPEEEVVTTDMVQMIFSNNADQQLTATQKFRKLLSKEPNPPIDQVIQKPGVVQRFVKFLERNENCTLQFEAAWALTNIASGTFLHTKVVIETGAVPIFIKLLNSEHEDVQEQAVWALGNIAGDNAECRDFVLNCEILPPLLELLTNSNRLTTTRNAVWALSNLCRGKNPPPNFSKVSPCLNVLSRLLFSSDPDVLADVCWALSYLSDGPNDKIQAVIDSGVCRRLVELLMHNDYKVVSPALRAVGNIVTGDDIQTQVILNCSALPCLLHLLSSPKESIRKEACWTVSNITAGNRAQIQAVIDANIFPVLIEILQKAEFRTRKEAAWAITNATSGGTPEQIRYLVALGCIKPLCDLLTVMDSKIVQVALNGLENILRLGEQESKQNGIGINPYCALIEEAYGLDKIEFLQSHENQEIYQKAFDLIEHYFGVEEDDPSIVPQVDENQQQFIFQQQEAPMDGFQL
UniProt Q13547: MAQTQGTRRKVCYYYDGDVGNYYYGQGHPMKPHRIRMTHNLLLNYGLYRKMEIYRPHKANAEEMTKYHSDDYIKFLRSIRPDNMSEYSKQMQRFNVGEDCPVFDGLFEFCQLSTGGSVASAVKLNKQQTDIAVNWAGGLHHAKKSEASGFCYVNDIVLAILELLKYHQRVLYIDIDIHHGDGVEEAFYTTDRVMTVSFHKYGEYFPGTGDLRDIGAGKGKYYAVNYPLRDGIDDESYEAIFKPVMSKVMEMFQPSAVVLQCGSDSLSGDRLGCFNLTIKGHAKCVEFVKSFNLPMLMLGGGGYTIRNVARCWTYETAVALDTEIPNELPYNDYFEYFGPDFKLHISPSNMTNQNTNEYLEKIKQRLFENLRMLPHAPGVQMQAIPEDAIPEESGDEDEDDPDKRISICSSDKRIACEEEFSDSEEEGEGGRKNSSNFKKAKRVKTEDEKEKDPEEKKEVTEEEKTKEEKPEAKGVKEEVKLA

Legend:
[1] = molecular target: FLAG-tagged importin α8 (UniProt A9QM74); assay: co-IP; SiHa-PR cells expressing FLAG-tagged importin α6 or α8, with ectopic wild-type LNMAC circRNA, LNMAC mutant or control; co-IP protocol not described
[2] = molecular target: FLAG-tagged importin α6 (UniProt O15131); assay: as above

binding [1]: binds
binding [2]: binds
Substance: histone deacetylase 1 (HDAC1) (from UniProt Q13547 1-482)
